Where a chain is given by its changes, count along the chain named. No constants are given. Whether binding was seen depends on the method and setting. For some of these results: A result given as binding can be weak or reduced; the word gives no strength.

Sequences of proteins named here, by UniProt entry; tags and fusion partners are left off. A change or cut given only in a name is not applied to a line headed by its entry.
UniProt Q9NPD8: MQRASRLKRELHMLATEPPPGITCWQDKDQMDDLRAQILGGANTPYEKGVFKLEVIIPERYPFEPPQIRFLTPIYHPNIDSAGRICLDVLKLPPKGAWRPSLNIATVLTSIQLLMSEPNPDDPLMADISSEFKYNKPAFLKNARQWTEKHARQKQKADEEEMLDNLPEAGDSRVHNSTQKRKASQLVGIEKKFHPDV

Experiment [1] deals with T1, Human FANCL RING domain (residues 289–375) (human) (UniProt Q9NW38).
T1 sequence: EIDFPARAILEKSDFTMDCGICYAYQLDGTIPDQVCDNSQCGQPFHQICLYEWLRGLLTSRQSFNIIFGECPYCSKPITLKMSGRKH
Briefly: SEC; analytical size-exclusion chromatography, Superdex 75 10/300; RING domain and one E2 incubated 1 hr on ice in 0.1 M NaCl, 0.1 M Tris pH 8, 250 μM TCEP; complex read as a peak shift to the left; both purified. Background: SEC sorts molecules by how far they enter the pores of the column.

Experiment [2] has as its target T2, Human FANCL RING domain Tyr311Ala (human) (UniProt Q9NW38).
T2 sequence: T1 sequence with Y23A
Described as above.

Experiment [3] deals with T3, Human FANCL RING domain Ile309Ala (human) (UniProt Q9NW38).
T3 sequence: T1 sequence with I21A
Described as above.

Experiment [4] concerns the target T4, Human FANCL RING domain Trp341Ala (human) (UniProt Q9NW38).
T4 sequence: T1 sequence with W53A
Described as above.

Experiment [5] addresses T1, Human FANCL RING domain (residues 289–375) (human). Briefly: native gel or EMSA; native gel shift; ∼140 μM FANCL RING domain with 80–100 μM E2, 10 min on ice in 0.1 M NaCl, 0.1 M Tris pH 8, 250 μM TCEP; 4%–12% native PAGE; both purified. On the technique in general: Mobility shift assays separate free from complexed probe on a gel.
Experiment [6] has the same target. As to the kind of experiment: SEC; analytical size-exclusion chromatography of FANCL RING domain incubated with an equimolar mix of Ube2T, Ube2D3 and Ube2L3; E2 bands of the shifted peak identified by SDS-PAGE and mass spectrometry; both purified.
For experiment [7] the target is unchanged. Briefly: crystal structure; RING domain (289-375) and Ube2T joined on one chain by a 14-residue linker; sitting drop at 4°C, 1.6 M ammonium sulfate, 0.1 M NaCl, 0.1 M HEPES pH 7.5; 2.4 Å; RING chain X contacts Ube2T chain A, chain Y contacts chain B; both purified.

For “Human Ube2T (from UniProt Q9NPD8) (enzyme)”, the binding entry in experiment [1] was “binds”; in experiment [2], “no binding”; in experiment [3], “no binding”; in experiment [4] it was “no binding”; in experiment [5] it was “binds”; in experiment [6], “binds”. Besides, the binding entry in experiment [7] was “binds”.

Source of the values: PMC3979106 (Structure(London, England:1993), 2014).
